Source: article PMC5459830
Results are given in words; binding and its absence hold for the method and conditions named. For some of these results: Binding calls can cover weak binding; strength is not graded here. For some of these results: In cells and extracts the contact can be indirect. For some of these results: Sequences can lack the tags named with a protein.

Legend:
[1] = target: GhJAZ10-A (Gossypium hirsutum (upland cotton)); assay: two-hybrid; GhMYC2/3, GhNINJA, GhMYB2, GhMYB23, GhMYB25, GhMYB25-like or GhDEL65 in pGADT7, GhJAZ in pGBKT7; yeast mating; growth on QDO (SD-Trp/-Leu/-Ade/-His) medium
[2] = target: GhJAZ11-D (Gossypium hirsutum (upland cotton)); assay: as above
[3] = target: GhJAZ3-D (Gossypium hirsutum (upland cotton)); assay: as above
[4] = target: GhJAZ12-D (Gossypium hirsutum (upland cotton)); assay: as above
[5] = target: GhJAZ13-D (Gossypium hirsutum (upland cotton)); assay: as above
[6] = target: GhJAZ5-A (Gossypium hirsutum (upland cotton)); assay: as above
[7] = target: GhJAZ1-D (Gossypium hirsutum (upland cotton)); assay: as above
[8] = target: GhJAZ7-A (Gossypium hirsutum (upland cotton)); assay: as above
[9] = target: GhJAZ2-A (Gossypium hirsutum (upland cotton)); assay: as above
[10] = target: cYFP-GhJAZ3-D (Gossypium hirsutum (upland cotton)); assay: split reporter; BiFC: cYFP-GhJAZ and nYFP fusions coexpressed for 48 hours in Nicotiana benthamiana leaves by Agrobacterium (GV3101) coinfiltration; YFP fluorescence by confocal microscopy

Row | binding [1] | binding [2] | binding [3] | binding [4] | binding [5] | binding [6] | binding [7] | binding [8] | binding [9] | binding [10] | Binder
1 | no binding | no binding | binds | no binding | no binding | no binding | no binding | no binding | no binding | – | GhDEL65 (protein, UniProt Q9ATD7 1-620) MSTGVQHQERVPMNLKKQLALAVRNIQWSYAIFWSISTRQPGVLEWGEGYYNGDIKTRKTVQSVELNTDQLSLQRSEQLRQLYESLSAGESSPQAKRPSAALSPEDLTDTEWYYLVCMSFVFNIGQGLPGRTLSSGQPVWLCNAHCADSKVFGRSLLAKSASIQTAVCFPFSGGVVELGVTDLVFEDLSLIQRVKTLLLDDPQPIVSKRSIQVDGMNNDLACPALDPLILATKLSPILGCEQLETVSPDDSPDGLEPKQSREDSLLIEGINGGASQVQSWQFMDEEFSNCVHHSLNSSDCISQTIADHRKVVPLCRGENDNGLQDVEECNQTKLTSFDRQNDDRHFHEVLSALFKSSHPLILGPQFRNSNKESSFIRWQKNGLKPQKERDETPQKLLKKILFLVPHMHDRGLIESPETNAVRDAAWRPEADEICGNHVLSERKRREKINERLMMLKSLVPANNKADKVSILDVTIEYLQTLERRVAELESCRKSEARTKIERTSDNNGKKSSLSKRKAYDVVDEADQEIGYVASKDGSTDKVTLSMNNKELLIEFKCPWREGILLEVMDALSILNLDCHSVQSSTTEGILSLTIKSKYKGSSVAKAGPIEQALQRIASKC
2 | – | – | – | – | – | – | – | – | – | no binding | nYFP-GhDEL65 (protein, UniProt Q9ATD7 1-620) MSTGVQHQERVPMNLKKQLALAVRNIQWSYAIFWSISTRQPGVLEWGEGYYNGDIKTRKTVQSVELNTDQLSLQRSEQLRQLYESLSAGESSPQAKRPSAALSPEDLTDTEWYYLVCMSFVFNIGQGLPGRTLSSGQPVWLCNAHCADSKVFGRSLLAKSASIQTAVCFPFSGGVVELGVTDLVFEDLSLIQRVKTLLLDDPQPIVSKRSIQVDGMNNDLACPALDPLILATKLSPILGCEQLETVSPDDSPDGLEPKQSREDSLLIEGINGGASQVQSWQFMDEEFSNCVHHSLNSSDCISQTIADHRKVVPLCRGENDNGLQDVEECNQTKLTSFDRQNDDRHFHEVLSALFKSSHPLILGPQFRNSNKESSFIRWQKNGLKPQKERDETPQKLLKKILFLVPHMHDRGLIESPETNAVRDAAWRPEADEICGNHVLSERKRREKINERLMMLKSLVPANNKADKVSILDVTIEYLQTLERRVAELESCRKSEARTKIERTSDNNGKKSSLSKRKAYDVVDEADQEIGYVASKDGSTDKVTLSMNNKELLIEFKCPWREGILLEVMDALSILNLDCHSVQSSTTEGILSLTIKSKYKGSSVAKAGPIEQALQRIASKC
